Reference: PubChem BioAssay AID504444 (National Center for Advancing Translational Sciences (NCATS), 2011)
Hit rate of the full screen: of about 360,000 compounds, about 7,500 (2.1%) were called active. Inconclusive results, whose numbers are uncertain, are shown with a selection of clear calls. The call rests on the fitted dose curve; in most records, active means well fitted inhibition curve with a large enough effect; inconclusive means small, poorly fitted or top-dose-only effect, or effect the other way; inactive means flat fitted curve, though single readings scatter. Where the call is inconclusive, the potency comes from a doubtful curve fit.

assay: Nrf2 qHTS screen for inhibitors; conditions: A549 ARE-Fluc reporter, luciferase luminescence, 18-24 h; activity change, negative = inhibition: at 46 µM (top of the series); further: nearly all actives have a fitted effect of over 60% in size
Summary of the method: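 A549 ARE_Fluc cells (5000/well, 5% FBS OPTI-MEM) pre-incubated 2 h, then treated with compounds 18-24 h at 37C/5% CO2 in concentration-response. CellTiter-Fluor viability read first; BugLite luciferase luminescence after 15 min at room temperature gives Nrf2 activity.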
On the % scale 0 is the no-effect control and ±100 the full control effect; potency means the concentration at half of the fitted maximal effect.

Row | Structure (SMILES) | activity change, negative = inhibition | Potency
1 | Cc1ccccc1OCC(=O)Nc1ccccc1N1CCC(C)CC1 | inactive: -6.81% | 
2 | O=C(Nc1nc(-c2cccs2)cs1)c1cccc(S(=O)(=O)N2CCCCC2)c1 |  | inconclusive: 32.6 µM [falling, single point]
3 | COc1ccc(NC(=O)C2CCN(S(=O)(=O)c3cccs3)CC2)cc1OC |  | inconclusive: 18.4 µM [falling, single point]
4 | Fc1ccc(Cc2nnc(-c3cccs3)o2)cc1 |  | inconclusive: 23.1 µM [activator, single point]
5 | Cc1[nH]nc2c1-c1nc3ccccc3nc1C(C)(C)C2 |  | active: 14.6 µM
6 | Cc1ccc(C(=O)NCC(=O)NCC(c2cccs2)N(C)C)cc1C (stereo unspecified) | inactive: 12.4% | 
7 | COc1ccc2c(c1)CC(N1CCN(C)CC1)c1cc(OC)ccc1S2 (stereo unspecified) |  | inconclusive: 29.1 µM [activator, single point]
8 | O=C(CC(c1ccccc1)c1ccccc1)N1CCN(c2ccccn2)CC1 |  | inconclusive: 32.6 µM [falling, single point]
9 | O=C(/C=C/c1ccccc1)NC(=S)NNC(=O)c1cnccn1 |  | active: 7.31 µM
10 | CC(=O)Nc1ccccc1C(=O)C(=O)Nc1cccc(C(=O)N2CC(C)CC(C)C2)c1 (stereo unspecified) |  | inconclusive: 29.1 µM [falling, single point]
11 | Cn1c(COc2ccc(F)cc2)nc2ccccc21 |  | inconclusive: 6.51 µM [falling, single point]
12 | N/C(=N\c1nc2ccccc2o1)NC(=O)c1ccc([N+](=O)[O-])cc1 |  | inconclusive: 1.84 µM [activator, full curve, poor fit]
13 | CC1CCCN(S(=O)(=O)c2cc3c4c(c2)C(C)C(=O)N4CCC3)C1 (stereo unspecified) | inactive: -14.4% | 
14 | COc1ccc(/C=N/NC(=O)CCn2cnc(-c3ccccc3)c2-c2ccccc2)cc1 |  | inconclusive: 29.1 µM [falling, single point]
15 | CCCn1c(=O)c(C(=O)NNS(=O)(=O)c2ccc(C)cc2)c(O)c2ccccc21 |  | inconclusive: 29.1 µM [falling, single point]
16 | O=C(/C=C/c1cccc(Cl)c1)c1ccc([N+](=O)[O-])o1 |  | inconclusive: 29.1 µM [falling, single point]
17 | COc1ccc(CNC(=O)Cn2ccc3cc(S(=O)(=O)N4CCCCCC4)ccc32)cc1OC |  | inconclusive: 29.1 µM [falling, single point]
18 | COc1ccc(Cc2nnc(NC(=O)Nc3ccccc3OC)s2)cc1 |  | inconclusive: 1.84 µM [activator, partial curve]
19 | CCC1CCc2c(sc3nc(SCC(=O)NCc4ccco4)n(-c4ccccc4)c(=O)c23)C1 (stereo unspecified) |  | inconclusive: 7.31 µM [falling, partial curve, poor fit]
20 | O=C(Nc1cccc(NC(=O)N2CCN(c3ccccc3)CC2)c1)N1CCN(c2ccccc2)CC1 |  | inconclusive: 18.4 µM [falling, single point]
21 | COc1cccc([C@@H]2CC=C(C(=O)O)[C@H](c3cccc(Cl)c3)N2S(=O)(=O)c2ccc(C)cc2)c1 |  | inconclusive: 23.1 µM [falling, partial curve, poor fit]
22 | CN(C(=O)OC(C)(C)C)c1ccc(-c2nc3ccccc3s2)cc1 |  | inconclusive: 23.1 µM [falling, partial curve, poor fit]

A few values from the list:
Potency with `N/C(=N\c1nc2ccccc2o1)NC(=O)c1ccc([N+](=O)[O-])cc1` reads inconclusive: 1.84 µM [activator, full curve, poor fit]
activity change, negative = inhibition with `CC1CCCN(S(=O)(=O)c2cc3c4c(c2)C(C)C(=O)N4CCC3)C1` (stereo unspecified) reads inactive: -14.4%
activity change, negative = inhibition with `Cc1ccccc1OCC(=O)Nc1ccccc1N1CCC(C)CC1` reads inactive: -6.81%

Further results follow.

Row | Structure (SMILES) | activity change, negative = inhibition | Potency
23 | Cc1nn(Cc2ccc(C(=O)Nc3nc4c(C)cccc4s3)o2)c(C)c1Br |  | inconclusive: 29.1 µM [falling, single point]
24 | CCN1CCc2c(sc(NC(=S)NC(=O)c3ccccc3)c2C#N)C1 | inactive: 29.7% | 
25 | Cc1ccc(/C=C/c2nc3ccccc3c(=O)[nH]2)cc1 |  | inconclusive: 29.1 µM [activator, single point]
26 | CCOc1ccc(-c2cc(C(=O)NCCCn3ccnc3)c3cc(Br)ccc3n2)cc1 |  | inconclusive: 23.1 µM [falling, single point]
27 | Cc1c(C(=O)N2CCC(Cc3ccccc3)CC2)cccc1[N+](=O)[O-] |  | inconclusive: 29.1 µM [falling, single point]
28 | COc1ccc2ccc(O)c(CN(C)CC(=O)Nc3ccccc3C(F)(F)F)c2c1 | inactive: -5.16% | 
29 | C=CCc1cc(Cl)ccc1OCCOCCNC(C)CC (stereo unspecified) |  | inconclusive: 32.6 µM [falling, single point]
30 | Cc1ccc(OC(=O)c2ccccc2C(=O)OCC(F)(F)C(F)F)cc1 |  | inconclusive: 29.1 µM [activator, single point]
31 | O=C(Nc1cccc(S(=O)(=O)c2cccc(NC(=O)C3CC3)c2)c1)C1CC1 |  | active: 8.2 µM
32 | Cc1ccc(C)c(NC(=O)CNC(=O)N2CC(=O)Nc3ccccc32)c1 |  | inconclusive: 0.0052 µM [activator, full curve, poor fit]
33 | CCC(=O)N1CCN(c2ccc(NC(=O)COc3ccccc3[N+](=O)[O-])cc2)CC1 |  | inconclusive: 20.6 µM [falling, partial curve, poor fit]
34 | CCn1c(SCC(=O)Nc2ccccc2OC)nc2ccccc2c1=O |  | inconclusive: 23.1 µM [falling, partial curve, poor fit]
35 | CCn1cc(Br)c(C(=O)Nc2ccc(F)cc2F)n1 |  | inconclusive: 16.4 µM [activator, partial curve, poor fit]
36 | CC(C)(C)C(=O)OCc1cn(-c2ccccc2)nn1 |  | inconclusive: 29.1 µM [activator, single point]
37 | O=C(CCN1CCC(c2ccccc2)C1)c1ccc2c(c1)OCCO2 (stereo unspecified) | inactive: -18.6% | 
38 | CCOc1ccc(CNS(=O)(=O)c2ccc3[nH]c4c(c3c2)CCCC4)cc1OC |  | inconclusive: 20.6 µM [falling, partial curve]
39 | Cc1ccc(S(=O)(=O)c2ccc(Cl)cc2)cc1S(=O)(=O)N1CCOCC1 |  | inconclusive: 25.9 µM [falling, single point]
40 | CSc1cccc(NC(=O)C(C)C)c1 | inactive: 1.44% | 
41 | COc1cc2ccccc2cc1C(=O)Nc1nnc(-c2ccncc2)o1 |  | inconclusive: 10.3 µM [falling, partial curve]
42 | Cc1ccccc1CSc1cn(CCNC(=O)c2cccs2)c2ccccc12 |  | inconclusive: 32.6 µM [falling, single point]
43 | CN(C)c1nc(C#N)nc(N2CCOCC2)n1 |  | inconclusive: 29.1 µM [falling, single point]
44 | O=C(NCc1cccnc1)c1ccc(COc2ccccc2Cl)cc1 |  | inconclusive: 13 µM [falling, partial curve]

Row | Structure (SMILES) | activity change, negative = inhibition | Potency
45 | Clc1ccc(-c2cc3ccccc3nc2N2CCOCC2)cc1 |  | inconclusive: 25.9 µM [falling, single point]
46 | COc1ccc(-c2nnc3n2N=C(c2ccc(OC)cc2OC)CS3)cc1 | inactive: 20.3% | 
47 | COc1cc(C(CC(=O)N2CCCC2)c2c(OC)cc(OC)c3c(-c4ccccc4)cc(=O)oc23)cc(OC)c1OC (stereo unspecified) |  | inconclusive: 32.6 µM [falling, partial curve, poor fit]
48 | CCCCn1c(SCc2nc(N)nc(Nc3ccccc3C)n2)nc2ccccc2c1=O |  | active: 20.6 µM
49 | CCN(Cc1ccc(OC)c(F)c1)C(C)C(=O)Nc1ccc(S(=O)(=O)N2CCCC2)cc1 (stereo unspecified) |  | inconclusive: 3.26 µM [falling, full curve]
50 | S=C(NCCc1ccc(Cl)cc1)NCc1ccccc1 |  | inconclusive: 29.1 µM [falling, single point]
51 | O=C(CSc1nc(-c2cccs2)cc(C(F)(F)F)n1)Nc1cc(OCC(F)(F)F)cc([N+](=O)[O-])c1 |  | inconclusive: 29.1 µM [falling, single point]
52 | COc1ccc2ccccc2c1/C=N/NC(=O)c1cc(C)[nH]n1 | inactive: 10.1% | 
53 | O=C(NCCc1ccc2c(c1)OCCO2)c1ccccn1 |  | inconclusive: 0.517 µM [activator, full curve]
54 | N/C(=N\c1nc(CSc2ccccn2)cc(=O)[nH]1)Nc1ccc(Cl)cc1Cl |  | inconclusive: 18.4 µM [falling, partial curve, poor fit]
55 | C=CCNC(=O)CCc1nnc(C2(c3ccc(Cl)cc3)CCC2)o1 |  | inconclusive: 29.1 µM [activator, single point]
56 | CC(NC(=O)c1cc(Br)ccc1Cl)c1ccccc1 (stereo unspecified) |  | inconclusive: 14.6 µM [falling, partial curve, poor fit]
57 | O=C1COc2ccc(C(=O)COC(=O)CCSc3ccc(Cl)cc3)cc2N1 |  | inconclusive: 16.4 µM [falling, partial curve, poor fit]
58 | COc1ccccc1NC(=S)NNC(=O)c1nn(C)c(C)c1Br |  | inconclusive: 2.06 µM [activator, partial curve, poor fit]
59 | Brc1ccc(-c2ncc(-c3ccccc3)cn2)cc1 |  | inconclusive: 2.31 µM [activator, full curve]
60 | CCOC(=O)c1c(C)oc2nc(C)nc(Nc3cccc(OC)c3)c12 |  | inconclusive: 16.4 µM [activator, partial curve, poor fit]
61 | CN1C(=O)Cc2cc(S(=O)(=O)NCc3cccs3)ccc21 |  | inconclusive: 14.6 µM [falling, partial curve, poor fit]
62 | COc1ccc(CCn2c(=S)[nH]c(=O)c3[nH]cnc32)cc1OC | inactive: -8.45% | 
63 | COc1ccc(-c2cnnc(N/N=C/c3ccc(C)o3)n2)cc1 |  | inconclusive: 20.6 µM [falling, single point]
64 | CCCc1nnc(SCC(=O)Nc2ccc(C(=O)OCC)cc2)o1 |  | inconclusive: 9.2 µM [activator, partial curve]
65 | COCc1c(Br)c(C)nc2sc3c(=O)[nH]nnc3c12 |  | inconclusive: 23.1 µM [falling, single point]
66 | COc1ccc(C(=O)NCC(=O)OCc2c(Cl)cccc2Cl)cc1OC |  | inconclusive: 16.4 µM [falling, partial curve, poor fit]

Two records picked at random from the list so far:
Row | Structure (SMILES) | activity change, negative = inhibition | Potency
62 | COc1ccc(CCn2c(=S)[nH]c(=O)c3[nH]cnc32)cc1OC | inactive: -8.45% | 
59 | Brc1ccc(-c2ncc(-c3ccccc3)cn2)cc1 |  | inconclusive: 2.31 µM [activator, full curve]
